Measured values reported in PubChem BioAssay AID1487 (National Center for Advancing Translational Sciences (NCATS), 2009).
“And” between values parts separate entries of the source, which are not always exact repeats. Identical values can stand only once. The list shows a part of the results. Shown are side measurements of this screen, not its main read-out; they come without a call. Most of these compounds were active or inconclusive in the main read-out, so they are no random draw. Words in brackets tell the shape of the fitted curve; partial curves, single points and poor fits give uncertain potencies.

Experiment: qHTS Assay for Modulators of Lamin A Splicing
Conditions: HeLa LMNA splicing GFP/RFP minigene ratio, 48 h
Method in brief: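 S3 HeLa stable clones carrying a lamin A-EGFP splicing minigene plus DsRed2 were seeded at 600 cells/well in Opti-MEM with 2% FBS, pin-dosed and incubated 48 h at 37°C. Acumen cytometry (488 nm) gave the GFP/RFP total-intensity ratio.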

[1] = measured here: GFP splicing reporter channel
[2] = measured here: RFP viability control channel

Row | Compound | AC50 [1] | AC50 [2]
1 | O=[N+]([O-])/C=C/c1cn(Cc2ccc(Cl)cc2)c2ccccc12 | 35.5 µM [falling, single point] | –
2 | COc1ccc(C2c3c(C)nn(-c4ccccc4)c3NC(=O)N2c2ccccc2)cc1 (configuration not stated) | – | 12.6 µM [rising, partial curve, poor fit]
3 | COC(=O)[C@H](C)[C@@H]1C[C@@]1(C)[C@@H](NC(=O)OCc1ccccc1)c1ccccc1 | 35.5 µM [rising, single point] | 35.5 µM [rising, partial curve, poor fit]
4 | CCOC(=O)C1=C(O)C(=O)N(Cc2cccnc2)C1c1ccc(OC)cc1 (configuration not stated) | 35.5 µM [falling, single point] | –
5 | Cc1ccc(CSc2nc3ccsc3c(=O)n2Cc2ccccn2)cc1 | 12.6 µM [rising, single point] | 28.2 µM [rising, single point]
6 | CO/N=C/c1ccc(N2CCN(C(=O)c3ccc(F)cc3)CC2)c([N+](=O)[O-])c1 | – | 12.6 µM [rising, single point]
7 | C=C1CC23C[C@H]4[C@@H]5[C@@]6(C)C[C@H](OC(=O)c7ccccc7)[C@@H](OC(C)=O)[C@]57[C@@H]2[C@@H](OC(C)=O)[C@H]1[C@@H](O)[C@H]3[C@H]7N4C6 | 0.224 µM [falling, full curve] | 8.91 µM [falling, single point]
8 | CCOc1ccccc1NS(=O)(=O)c1ccc(-c2cnc(C3CC3)o2)cc1 | – | 0.224 µM [rising, full curve]
9 | COC(=O)c1c(C)oc2ccc(N(C(=O)c3ccncc3)S(=O)(=O)c3ccc(C)cc3)cc12 | – | 4.47 µM [rising, full curve]
10 | CN(CCOc1cccc(C(F)(F)F)c1)Cc1ccccc1 | 0.01 µM [rising, full curve, poor fit] | –
11 | COc1cccc(CSc2nc3sc(C)c(C)c3c(=O)n2Cc2ccco2)c1 | 11.2 µM [rising, partial curve, poor fit] | 15.8 µM [rising, partial curve]
12 | CC(=O)C1=NN(c2ccccc2)C(c2ccc3c(c2)OCO3)N1c1ccc(N2CCOCC2)cc1 (configuration not stated) | 14.1 µM [rising, partial curve] | 0.794 µM [rising, single point]
13 | CCOc1nc(Nc2ccc([N+](=O)[O-])cc2)nc(NC(C)(C)C)n1 | – | 12.6 µM [rising, partial curve]
14 | O=C(N/N=C/C=C/c1ccccc1[N+](=O)[O-])c1cc(-c2ccccc2)n[nH]1 | 0.0355 µM [falling, full curve, poor fit] | 0.0562 µM [falling, full curve, poor fit]
15 | CCCCOC(=O)C1=C(C)Nc2nnnn2C1c1ccccc1Cl (configuration not stated) | – | 17.8 µM [rising, single point]
16 | COC(=O)c1c(NC(=O)CN2CCCc3ccccc32)sc(C)c1C | 7.08 µM [rising, full curve, poor fit] | 11.2 µM [rising, partial curve]
17 | COc1ccc(-c2n[nH]c(C)c2-c2ccc(OC)c(OC)c2)c(O)c1 | 17.8 µM [rising, single point] | 15.8 µM [rising, single point]

Row | Compound | AC50 [1] | AC50 [2]
18 | O=c1c(N2CCc3ccccc3C2)csc2ccccc12 | 11.2 µM [rising, partial curve, poor fit] | 35.5 µM [rising, single point]
19 | COc1ccc(Cn2nnnc2C(C(C)C)N2CCN(c3ccccc3OC)CC2)cc1 (configuration not stated) | – | 17.8 µM [rising, single point]
20 | CC(=O)C1=NN(c2ccccc2)C(c2cccs2)N1c1ccc(N(C)C)cc1 (configuration not stated) | – | 3.16 µM [rising, single point]
21 | CC(C)(C)C(=O)Cn1c(=N)n(Cc2ccccc2)c2ccccc21 | 31.6 µM [rising, single point] | 31.6 µM [rising, single point]
22 | CCOC(=O)c1c(Cc2ccc(Cl)cc2)c[nH]c1C | – | 15.8 µM [rising, single point]
23 | Cc1onc(-c2ccccc2Cl)c1C(=O)N1CCc2ccccc2C1 | 22.4 µM [rising, single point] | 35.5 µM [rising, single point]
24 | O=C(NC(c1ccc(Cl)cc1)c1c(O)ccc2ccccc12)c1ccccc1 (configuration not stated) | 25.1 µM [falling, single point] | –
25 | CCCOC1CCCN(C(=O)CCc2nnc(CCCCc3ccccc3)o2)C1 (configuration not stated) | 1.26 µM [falling, full curve] | 0.0224 µM [falling, full curve, poor fit]
26 | Cc1c(C(=O)OC2CCCC2)[nH]c2c1C(=O)CC(c1ccco1)C2 (configuration not stated) | 3.16 µM [rising, single point] | 1.26 µM [rising, full curve]
27 | COCCCNC(=O)c1ccc2c(=O)n(Cc3ccc(OC)cc3)c(=O)[nH]c2c1 | 0.447 µM [rising, full curve, poor fit] | –
28 | CCOc1ccc(C(O)c2nccn2Cc2ccccc2)cc1 (configuration not stated) | – | 35.5 µM [rising, single point]
29 | COc1cc([N+](=O)[O-])ccc1NC(=S)NC(=O)CC(C)(C)C | 1.58 µM [rising, full curve, poor fit] | –
30 | Cc1c(C(=O)NCc2cccs2)oc2ccc(Br)cc12 | – | 7.94 µM [rising, partial curve, poor fit]
31 | CC(C)CC(c1nnnn1C1CCCCC1)N1CCN(c2ncccn2)CC1 (configuration not stated) | – | 0.282 µM [falling, full curve, poor fit]
32 | CSc1ccc2c(c1)C(N1CCN(C)CC1)Cc1ccccc1S2 (configuration not stated) | 7.08 µM [falling, full curve, poor fit] | 178 nM [falling, full curve, poor fit] and 7.94 µM [falling, partial curve, poor fit]
33 | CCCCN1C(=O)/C(=C/C=C2/CC(C)(C)CN2C)SC1=S | 20 µM [falling, partial curve] | –
